Assay results reported in PubChem BioAssay AID743255 (National Center for Advancing Translational Sciences (NCATS), 2014).
Among all 390,000 compounds or so, about 910 (0.23%) were called active. Inconclusive means that the source gave no clear call. Such entries were picked first, then a sample of the others. The call rests on the fitted dose curve; in most records, active means well fitted inhibition curve with a large enough effect; inconclusive means small, poorly fitted or top-dose-only effect; inactive means no such curve, though single readings can be large or run the other way. Where the call is inconclusive, the potency comes from a doubtful curve fit.

Protein sequences, listed by entry. Tags and fused reporters are not part of them. Lines headed by an entry give the natural chain unless they say otherwise; changes in a name come on top.
UniProt O94782: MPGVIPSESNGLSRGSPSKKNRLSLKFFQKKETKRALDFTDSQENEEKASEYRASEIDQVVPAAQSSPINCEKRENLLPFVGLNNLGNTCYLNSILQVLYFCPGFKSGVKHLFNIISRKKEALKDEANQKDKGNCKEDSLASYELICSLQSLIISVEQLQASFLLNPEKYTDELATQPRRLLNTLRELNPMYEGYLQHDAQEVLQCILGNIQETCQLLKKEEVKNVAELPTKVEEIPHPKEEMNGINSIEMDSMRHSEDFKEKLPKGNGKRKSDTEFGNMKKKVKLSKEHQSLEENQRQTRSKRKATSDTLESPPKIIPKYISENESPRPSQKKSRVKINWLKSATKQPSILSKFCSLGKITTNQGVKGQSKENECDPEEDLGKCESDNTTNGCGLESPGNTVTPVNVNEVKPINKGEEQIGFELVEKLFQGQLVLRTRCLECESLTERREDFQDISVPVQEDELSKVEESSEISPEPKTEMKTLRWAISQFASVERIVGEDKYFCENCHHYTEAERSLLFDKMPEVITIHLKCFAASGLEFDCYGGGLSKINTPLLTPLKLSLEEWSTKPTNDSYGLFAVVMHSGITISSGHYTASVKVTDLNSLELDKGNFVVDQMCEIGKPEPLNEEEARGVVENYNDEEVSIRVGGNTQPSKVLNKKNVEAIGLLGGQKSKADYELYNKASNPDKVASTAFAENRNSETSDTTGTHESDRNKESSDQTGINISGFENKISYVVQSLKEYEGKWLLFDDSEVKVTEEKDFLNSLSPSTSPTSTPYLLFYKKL

target: Ubiquitin carboxyl-terminal hydrolase 1 (Homo sapiens) (UniProt O94782); assay: Inhibitors of USP1/UAF1: Primary Screen; conditions: recombinant USP1/UAF1, Ub-Rhodamine cleavage fluorescence; activity change, negative = inhibition: at 57.1 µM (top of the series); further: nearly all actives have a fitted effect of over 60% in size
How it was run: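 Step one: compound is pinned into 1nM USP1/UAF1 in HEPES pH 7.8 buffer with TCEP. Step two: 15 min room-temperature incubation. Step three: Ub-Rho (150nM final) starts cleavage, tracked by fluorescence over six one-minute reads.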
On the % scale 0 is the no-effect control and ±100 the full control effect; potency means the concentration at half of the fitted maximal effect.

Potency, inconclusive:
CN(C)c1ccc(C=NN2CCCCCC2)cc1 7.08 µM [inhibitor, single point]
CC[C@]12c3[nH]c4ccc(OC)cc4c3CCN1C(=O)C(CC(=O)NCCN1CCOCC1)C[C@@H]2C(=O)N1CCN(C(=O)c2ccco2)CC1 (stereo partly drawn) 39.8 µM [inhibitor, partial curve, poor fit]
COC(=O)c1c(NC(=O)COc2ccc(Cl)cc2)sc(C)c1C 8.91 µM [inhibitor, partial curve, poor fit]
COc1cccc(N2CCN(C(=O)Cn3nc(C)n4c(cc5c(OC)cccc54)c3=O)CC2)c1 50.1 µM [inhibitor, single point]
Cc1ccc(NC(=O)c2ccco2)c(NC(=O)c2cccs2)c1 7.94 µM [inhibitor, partial curve, poor fit]
COc1ccc(-c2cc(C)no2)cc1S(=O)(=O)NCc1ccco1 1.41 µM [inhibitor, full curve, poor fit]
O=C(O)CN1C(=O)/C(=C/c2ccc(SCc3ccccc3)o2)SC1=S 28.2 µM [inhibitor, single point]
CCCCCOC(=O)CSc1nc2sc3c(c2c(=O)n1-c1ccccc1)CC(C)(CC)OC3 (stereo not drawn) 4.47 µM [inhibitor, partial curve]
N#Cc1ccc2ccn(CC(=O)NC3CCCCCC3)c2c1 15.8 µM [inhibitor, partial curve]
O=C(N/N=C/c1ccco1)c1cccc(NC(=O)c2ccccc2Cl)c1 0.398 µM [inhibitor, full curve, poor fit]
CCN(CC)C(=O)OCc1c(-c2cccc(OC)c2)ncc2ccccc12 35.5 µM [inhibitor, partial curve, poor fit]
Cc1ccc(S(=O)(=O)Cc2nc(-c3ccc(C(=O)NCc4ccccc4C)cc3)oc2C)cc1 79.4 µM [inhibitor, partial curve, poor fit]
C=CCNc1nc(Nc2ccc(-c3nc4ccccc4o3)cc2)nc(N2CCOCC2)n1 0.199 µM [inhibitor, full curve, poor fit]
CCOC(=O)c1c(C)[nH]c(C2=NNC(=Nc3ccccc3)SC2)c1C 6.31 µM [inhibitor, partial curve]
ON=Cc1cccn1-c1ccccc1 35.5 µM [inhibitor, partial curve, poor fit]
Nc1cc2nn(-c3ccccc3)nc2cc1Cl 3.16 µM [inhibitor, full curve]
Cc1c(C)n(CCc2ccccc2)c2ncnc(NN)c12 44.7 µM [inhibitor, partial curve, poor fit]
CCCCC(=O)Nc1ccc(OCc2cc(=O)n3c(C)csc3n2)cc1 50.1 µM [inhibitor, partial curve, poor fit]
COc1cccc2c1C(CO)N1C(C#N)C3CC(C(=O)O)C(C1C2)N3C (stereo not drawn) 1.26 µM [inhibitor, full curve]
COc1ccc(OCC(=O)N(Cc2sccc2C)C2CCS(=O)(=O)C2)cc1 (stereo not drawn) 0.316 µM [inhibitor, full curve, poor fit]
CC(C(=O)NCCS(=O)(=O)c1ccc(Cl)cc1)S(=O)(=O)c1ccc(Cl)cc1 (stereo not drawn) 0.282 µM [inhibitor, full curve]
COc1ccc(-n2nc3c(c2NC(=O)C2CCCC2)CS(=O)C3)cc1 (stereo not drawn) 28.2 µM [inhibitor, partial curve]
NS(=O)(=O)c1ccc(NC(=O)COc2ccc(S(=O)(=O)NC3CCCCC3)cc2)cc1 0.199 µM [inhibitor, full curve, poor fit]
O=C(O)c1ccc(N/N=C/c2cn(Cc3ccccc3F)c3ccccc23)cc1 50.1 µM [inhibitor, partial curve, poor fit]
O=C1CS(=O)(=O)C2(C(=O)N(Cc3ccccc3)c3ccccc32)N1c1ccc(F)c(Cl)c1 (stereo not drawn) 0.282 µM [inhibitor, full curve, poor fit]
O=C(CN1C(=O)CSC1=O)N1CCc2ccccc2C1 35.5 µM [inhibitor, single point]

Activity change, negative = inhibition, inactive:
CCOC(=O)c1c(C)n(-c2ccc(C)cc2)c2c(CC(C)=O)c(Br)c(OC)c(O)c12 7.17%
CCN1C(=O)C(O)(CC(=O)/C=C/C=C/c2ccccc2)c2ccccc21 (stereo not drawn) -18.7%
O=C(O)CCC(=O)N1CCc2cc(S(=O)(=O)N3CCN(c4ccc(F)cc4)CC3)ccc21 -16.5%
O=C(CSC1=NCCS1)N1N=C(c2cccs2)CC1c1ccc(F)cc1 (stereo not drawn) -22.3%
COc1ccc(S(=O)(=O)Cc2ccc(C(=O)N3CCN(c4ccccn4)CC3)o2)cc1 -17.2%
C[C@H](CO)N1C[C@H](C)[C@H](CN(C)Cc2ccc(-c3ccccc3)cc2)Oc2ccc(NS(=O)(=O)c3ccccc3)cc2CC1=O -12.8%
Cc1cccc(CCn2c(=O)c3ccccc3n(CC(=O)Nc3ccccc3F)c2=O)c1 -9%
O=C(Nc1cccc(F)c1)C1CCCCC1 -27.5%
CCN(CCO)c1ccc(NC(=S)Nc2cccc(S(=O)(=O)N(C)C)c2)cc1 -26.2%
Nc1nnc(CSCc2ccc(Cl)cc2)s1 -13.5%
COc1ccc([N+](=O)[O-])cc1/C=N/NC(=O)CNC(=O)c1cccc(F)c1 -9.57%
CC(Oc1ccc(Cl)cc1)c1ccc(C#N)c(=O)[nH]1 (stereo not drawn) -15.2%
Cc1cc(NC(=O)c2cc(Cl)ccc2Cl)ccc1-c1cc2ccccc2oc1=O -18%
COc1ccccc1C(=O)Oc1c(Sc2ccccc2)c(C)nn1-c1ccccc1 -26.3%
O=C(Nc1ccc(Cl)cc1)NC1CCCCC1Cc1ccco1 (stereo not drawn) -22.7%
Cc1ccc2nc(-c3cccc(S(=O)(=O)N(C)C)c3)cn2c1 -23.1%
COc1cccc(/C=N/n2c(COc3ccccc3)n[nH]c2=S)c1 -0.361%
